# Experimental data as given in PubChem BioAssay AID1347075 (National Center for Advancing Translational Sciences (NCATS), 2019).
# “And” between values parts separate entries of the source, which are not always exact repeats. Equal values may be shown once. Among all 400,000 compounds or so, about 5,500 (1.4%) were called active. The shares of active, inactive and inconclusive entries below differ from those in the screen. The call rests on the fitted dose curve; in most records, active means well fitted cell-killing curve with a large enough effect; inconclusive means small, poorly fitted or top-dose-only effect, or effect the other way; inactive means flat fitted curve, though single readings scatter. Potencies beside an inconclusive call are fits to weak or partial responses and may not hold up.
# Assay: qHTS assay for MDR1-selective chemotherapeutics: Primary screen using the parental adenocarcinoma cell KB-3-1; further: nearly all actives have a fitted effect of over 60% in size
# Conditions: KB-3-1 viability, CellTiter-Glo ATP luminescence, 72 h; activity change, negative = cytotoxic: at 46.1 µM (top of the series)
# Outline: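 Cytotoxicity measured as CellTiter-Glo luminescence after 72 h at 37 C. Compound titrations were pinned onto drug-naive KB-3-1 parental adenocarcinoma cells grown in DMEM with 10% FBS, and normalized data fitted to concentration-response curves.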
# On the % scale 0 is the no-effect control and ±100 the full control effect; potency means the concentration at half of the fitted maximal effect.
Structure (SMILES),Potency,"activity change, negative = cytotoxic"
O=C(c1cccs1)N1CCCc2cc(NS(=O)(=O)c3ccc(Br)cc3)ccc21,"inconclusive: 29.1 µM [cytotoxic, single point]",–
CN1CCN(C(=S)c2cn(Cc3ccccc3)c3ccccc23)CC1,inactive,–
CS(=O)(=O)Nc1cccc(NC(=O)c2ccc(-n3ccnc3)c3ccoc23)c1,"inconclusive: 0.013 µM [rising, full curve]",–
C[n+]1ccccc1/C=C/c1ccccc1Cl,"inconclusive: 16.4 µM [cytotoxic, partial curve]",–
O=C(NCc1ccccc1Cl)c1ccc2c(c1)ncn2-c1cccc(F)c1,inactive,–
COC(=O)COn1c(-n2nc(C)cc2C)nc2ccccc2c1=O,"inconclusive: 29.1 µM [cytotoxic, single point]",–
CCS(=O)(=O)c1nc(S(=O)(=O)c2ccc(C)cc2)c(N2CCCC2)s1,–,inconclusive: 39.3%
COc1cc(/C=C(\C#N)C(=O)NCC2CCCO2)ccc1OC(=O)c1ccco1 (centres undefined),inactive,–
O=C(Cn1cc2c(n1)CCCCC2)NCCN1CCOCC1,–,inconclusive: -0.801%
O=C(COC(=O)Cc1ccsc1)NC1CCCCCC1,inactive,–
COc1ccccc1C(=O)Nc1ccc(Br)cc1C,"inconclusive: 25.9 µM [cytotoxic, partial curve, poor fit]",–
Cc1ccc2nccnc2c1,"inconclusive: 18.4 µM [cytotoxic, single point]",–
Cc1ccccc1NC(=O)CSc1nc(=O)n(CCN2CCOCC2)c2c1CCCC2,"inconclusive: 18.4 µM [rising, partial curve, poor fit]",–
Cc1ccc2c(CC(=O)Nc3nnc(C(C)C)s3)coc2c1C,inactive,–
COc1cc(C2=NOC(C(=O)NCc3cccnc3)C2)cc(OC)c1OC (centres undefined),"inconclusive: 29.1 µM [cytotoxic, single point]",–
N#Cc1nc(NCC(F)F)nc(Nc2cc(F)cc(F)c2)n1,"inconclusive: 23.1 µM [cytotoxic, single point]",–
CCOC(=O)COc1ccccc1/C=C\[N+](=O)[O-],active: 9.2 µM,–
COc1ccc2nc(N=Nc3ccc(O)c4ccccc34)sc2c1,"inconclusive: 2.91 µM [cytotoxic, partial curve, poor fit]",–
COc1cc(C(=O)N/N=C(\c2ccccc2)c2ccccn2)cc(OC)c1OC,"inconclusive: 23.1 µM [cytotoxic, partial curve, poor fit]",–
COCCOc1cc(NC(=O)CS(=O)CC(=O)N(C)C)c(Cl)cc1Cl (centres undefined),"inconclusive: 32.6 µM [rising, single point]",–
CCOc1ccc(/C=N/NC(=O)CC(=O)NCc2ccccc2)cc1,inactive,–
CC1=C(C(=O)Nc2ccccc2F)C(c2ccsc2)C2=C(CC(c3ccccc3)CC2=O)N1 (centres undefined),"inconclusive: 29.1 µM [cytotoxic, single point]",–
Oc1ccc(/C=N/Nc2cccc3cccnc23)c(O)c1,inactive,–

# Four of the compounds above, with bars between the fields:
Structure (SMILES) | Potency | activity change, negative = cytotoxic
COc1cc(C2=NOC(C(=O)NCc3cccnc3)C2)cc(OC)c1OC (centres undefined) | inconclusive: 29.1 µM [cytotoxic, single point] | –
N#Cc1nc(NCC(F)F)nc(Nc2cc(F)cc(F)c2)n1 | inconclusive: 23.1 µM [cytotoxic, single point] | –
CCOC(=O)COc1ccccc1/C=C\[N+](=O)[O-] | active: 9.2 µM | –
COc1ccc2nc(N=Nc3ccc(O)c4ccccc34)sc2c1 | inconclusive: 2.91 µM [cytotoxic, partial curve, poor fit] | –

# Further structures follow.

Structure (SMILES),Potency,"activity change, negative = cytotoxic"
COc1cc(/C=C2/SC(=S)N(Cc3ccccc3)C2=O)ccc1O,"inconclusive: 20.6 µM [cytotoxic, single point]",–
CCN=C1SC(C(=O)Nc2ccccc2)CC(=O)N1CC (centres undefined),"inconclusive: 0.651 µM [cytotoxic, full curve]",–
CC(=O)c1cc(C#N)c(SCc2ccccc2C#N)nc1C,active: 16.4 µM,–
O=C(NNC(=S)NC(=O)c1ccccc1[N+](=O)[O-])c1ccccc1O,"inconclusive: 29.1 µM [cytotoxic, single point]",–
COc1cc(C(=O)Nc2cc(C)c(O)c(-c3nc4cc(Cl)ccc4o3)c2)cc(OC)c1OC,active: 7.31 µM,–
Cc1ccc(CSc2nnc(SCC(=O)N/N=C/c3c[nH]c4ccccc34)s2)cc1,"inconclusive: 29.1 µM [cytotoxic, single point]",–
C[C@@H]1CCC[C@@]2(O[C@@H](CCO)C[C@H](O)[C@H]2O)O1,"inconclusive: 18.4 µM [rising, partial curve, poor fit]",–
CCOC(=O)NC(=O)c1cn(CCN(C)C)c(=O)[nH]c1=O,inactive,–
CC(C)(C)c1ccc(OCCC(=O)Nc2cccc(S(=O)(=O)N3CCOCC3)c2)cc1,"inconclusive: 20.6 µM [cytotoxic, single point]",–
CCOc1cccc(-c2nn3c(-c4ccco4)nnc3s2)c1,"inconclusive: 18.4 µM [rising, partial curve]",–
O=C(CSCc1ccccc1)N1CCN(S(=O)(=O)c2cccc(F)c2)CC1,"inconclusive: 20.6 µM [cytotoxic, partial curve, poor fit]",–
COc1cc(-c2noc(C)c2/C=C/c2ccc(OC(C)=O)cc2)cc(OC)c1OC,active: 259 nM and active: 731 nM,–
CC1=C(C#N)C2C(/C1=N/O)C2(C)C (centres undefined),"inconclusive: 29.1 µM [cytotoxic, single point]",–
CCc1nccn1C(=O)c1cnn2c(C(F)F)cc(-c3ccc(C)cc3)nc12,"inconclusive: 29.1 µM [rising, single point]",–
C=CCn1c(SCC(=O)NCC2CCCO2)nc2c([nH]c3ccccc32)c1=O (centres undefined),inactive,–
O=Nc1c(O)n(Cc2ccc(Cl)cc2Cl)c2ccccc12,"inconclusive: 18.4 µM [cytotoxic, single point]",–
CCCCNC(=S)Nc1ccc([N+](=O)[O-])cc1,"inconclusive: 20.6 µM [cytotoxic, single point]",–
O=C(NC(=S)Nc1ccccc1N1CCCCC1)c1ccco1,"inconclusive: 18.4 µM [cytotoxic, single point]",–
COc1ccc(Cn2c3ccc(OC)cc3c3nc4ccccc4nc32)cc1,"inconclusive: 29.1 µM [cytotoxic, single point]",–
CN1c2ccccc2C(C)(C)[C@]12C=Cc1cc(O)ccc1O2,"inconclusive: 29.1 µM [cytotoxic, single point]",–
Cc1ccc(C)c(N(CC(=O)Nc2ccccc2C(=O)NCc2ccco2)S(=O)(=O)c2ccccc2)c1,"inconclusive: 23.1 µM [cytotoxic, single point]",–
CC(C)(C)NC(=S)Nc1ccc(Nc2ccccc2)cc1,"inconclusive: 29.1 µM [cytotoxic, single point]",–
Cc1ccc(S(=O)(=O)N(C)Cc2ccc(C(=O)N/N=C/c3ccc(OC(F)F)cc3OC(F)F)cc2)cc1,"inconclusive: 29.1 µM [cytotoxic, single point]",–

Structure (SMILES),Potency,"activity change, negative = cytotoxic"
CC1(C)CC(=O)C=C(c2ccc(-c3ccc(OC(F)(F)F)cc3)cc2)C1=O,"inconclusive: 29.1 µM [cytotoxic, single point]",–
Cc1ccc(/C=C/C(=O)NC2CCCCCCC2)o1,inactive,–
O=c1c(-c2ccc(Oc3ccccc3)cc2)[n+]([O-])c2ccccc2n1OCc1ccccn1,"inconclusive: 0.58 µM [cytotoxic, full curve, poor fit]",–
C[C@@H]1CN([C@H](C)CO)S(=O)(=O)c2ccc(Br)cc2O[C@@H]1CN(C)C(=O)NC1CCCC1,inactive,–
Cc1sc(NC(=O)C2c3ccccc3Oc3ccccc32)c(C(=O)OC(C)C)c1C,inactive,–
CCN(c1cccc(C)c1)S(=O)(=O)c1cc2c3c(c1)CCC(=O)N3CCC2,"inconclusive: 29.1 µM [cytotoxic, single point]",–
COc1ccc(NC(=O)Nc2nnc(C(C)C)s2)cc1,"inconclusive: 32.6 µM [cytotoxic, single point]",–
COc1ccc(S(=O)(=O)NCc2cccnc2)c(Cl)c1Cl,inactive,–
CCCCn1c(N)c(N(CCOC)C(=O)c2ccc(C)o2)c(=O)[nH]c1=O,inactive,–
O=C1CS/C(=N/N=C/c2cccs2)N1,"inconclusive: 18.4 µM [cytotoxic, single point]",–
Cc1nc2nc(-c3ccc(F)cc3)cn2nc1C,"inconclusive: 18.4 µM [cytotoxic, partial curve, poor fit]",–
COc1ccc(C2C3=C(CC(C)(C)CC3=O)N(C)C3=C2C(=O)CC(C)(C)C3)cc1,inactive,–
Cc1c(NC(=O)CCC2CCCCC2)c(=O)n(-c2ccccc2)n1C,"inconclusive: 0.0073 µM [cytotoxic, full curve]",–
CN(C)C(=O)c1ccc(NC(=O)COc2cccc3c2OC(C)(C)C3)cc1,inactive,–
O=C(C[C@H]1C[C@H](C(=O)N2CCCCC2)[C@@]2(CCc3ccccc3)c3[nH]c4cc(-c5ccco5)ccc4c3CCN2C1=O)NCCN1CCOCC1,active: 18.4 µM,–
COc1cc(-c2cnc3c(NC(C)=O)cc(-c4ccc(N5CCN(C)CC5)cc4)cn23)cc(OC)c1OC,"inconclusive: 29.1 µM [cytotoxic, single point]",–
O=C(NCc1ccc(F)cc1)C1CCN(c2cnccn2)CC1,inactive,–
Cc1ccc(CNC(=O)C2CC(c3ccccc3[N+](=O)[O-])=NO2)o1 (centres undefined),"inconclusive: 32.6 µM [cytotoxic, single point]",–
COc1ccccc1/C=N/NC(=O)c1cc2c(ccc3ccccc32)o1,"inconclusive: 18.4 µM [cytotoxic, single point]",–
COc1ccc(-c2nnc(Nc3nc4c(OC)cccc4s3)o2)c(OC)c1,"inconclusive: 16.4 µM [cytotoxic, partial curve]",–
CC(C)(C)OC[C@H](NC(=O)c1[nH]cnc1C(=O)Nc1ccccc1F)C(=O)OC(C)(C)C,"inconclusive: 29.1 µM [cytotoxic, single point]",–
O=C(CS(=O)(=O)c1nc(-c2ccc(Cl)cc2)cn1-c1ccccc1)Nc1cccc(Cl)c1,active: 16.4 µM,–
C=CCOc1ccc(/C(CC)=N/O)c(OC)c1,"inconclusive: 16.4 µM [cytotoxic, single point]",–
